From patent US20250333515A1
No constants are given. Whether binding was seen depends on the method and setting. Some entries that bind do so weakly or less than the wild type.

Columns and labels:
[1] = molecular target: T1, CLL-1 on the surface of CLL-1-positive AML cell lines (HL-60 WT, U937) (human) (UniProt Q5QGZ9); assay: multi-point flow cytometry, HL-60 cell surface
T1 sequence (looked up): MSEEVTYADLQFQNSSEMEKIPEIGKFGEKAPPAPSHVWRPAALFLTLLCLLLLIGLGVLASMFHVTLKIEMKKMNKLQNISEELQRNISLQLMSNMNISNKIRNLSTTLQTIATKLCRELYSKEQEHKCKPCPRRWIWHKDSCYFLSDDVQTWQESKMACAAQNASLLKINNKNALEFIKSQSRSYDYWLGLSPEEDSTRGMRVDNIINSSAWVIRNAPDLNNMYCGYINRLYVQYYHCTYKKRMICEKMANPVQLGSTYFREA

[2] = molecular target: T2, biotinylated recombinant CLL-1 extracellular domain (ECD) protein (UniProt Q5QGZ9); assay: composite data of the binding assays (FIGS. 12A and 12B)
T2 sequence (biotinylated (site not stated), looked up): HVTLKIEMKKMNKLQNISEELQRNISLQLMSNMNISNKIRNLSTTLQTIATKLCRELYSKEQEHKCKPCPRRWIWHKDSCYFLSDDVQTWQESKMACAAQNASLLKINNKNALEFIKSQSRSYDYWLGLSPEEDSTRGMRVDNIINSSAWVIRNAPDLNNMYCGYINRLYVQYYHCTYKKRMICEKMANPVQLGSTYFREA

[3] = molecular target: T1, CLL-1 on the surface of CLL-1-positive AML cell lines (HL-60 WT, U937) (human); assay: flow cytometry, HL-60, 200 nM; secondary-only line about 2x10^3
[4] = molecular target: T1, CLL-1 on the surface of CLL-1-positive AML cell lines (HL-60 WT, U937) (human); assay: flow cytometry, U-937, 200 nM; secondary-only line about 2.5x10^3

Measured: binding

B1: Anti-CLL-1 Binder Clone 11 (scFv, not shown: small tags and cut ends)
scFv: QSVLTQPASVSGSPGQSITISCTGTSSDVGASNSVSWYQRHPGKPPKLMIYDVSNRPSGISNRFSGSKSGNTASLTISGLQSEDEADYYCSSYTGSSTFVVFGGGTQLIILGGGGSGGGGSGGGGSEVQLVESGGGVVQPGGSLRLSCAASGFTFSSYWMSWVRQAPGKGLEWVANIRQDGSEKYYVDSVKGRFTISRDNAKNSLYLQMNSLRAEDAAVYYCAREQDTAMVAFDYWGQGTLVTVSS
binds: [1] | [2] | [3] | [4]

B2: Anti-CLL-1 Binder Clone 2 (scFv, not shown: small tags and cut ends)
scFv: QSVLTQPLSVSVALGQTARITCGGNNIGSKNVHWYQQKAGQAPVLVIQRDSNRPSGIPERFSGSNSGNTATLTISRAQAGDEADYFCQVWDSNTYVFGTGTKLTVLGGGGSGGGGSGGGGSEVQLVESGGGLVKPGGSLRLSCAASGFTFSDYYMSWIRQAPGKGLEWVSYISSSGSTIYYADSVKGRFTISRDNAKNSLYLQMNSLRDEDTAVYYCARQSAEIVGAFDHWGQGTMVTVSS
binds: [1] | [3] | [4]

B3: Anti-CLL-1 Binder Clone 4 (scFv, not shown: small tags and cut ends)
scFv: QSVVTQPPSVSAAPGQKVTISCSGSSPNIGKNYVSWYQQLPGTAPKLLIYDNNKRPSGIPDRFSGSKSGTSATLGITGLQTGDEADYYCGTWDSSLSGYVFGTGTKVTVLGGGGSGGGGSGGGGSQVQLVESGGGVVQPGRSLRLSCAASGFTFSSYGMHWVRQAPGKGLEWVAFISHDGSNKYYADSVKGRSTISRDNSKSTLFLQMNSLRDEDTAVYFCAREGQLTTSWDFFDYWGHGTLVTVSS
binds: [1] | [3] | [4]

B4: Anti-CLL-1 Binder Clone 6 (scFv, not shown: small tags and cut ends)
scFv: QSVLTQPPSVSAAPGQKVSIFCSGGSSNIGKNYVSWYQQLPGTAPKLLIYENQHRPSGIPDRFSGSKSGTSATLGITGLQTGDEADYYCATWDDSLSAGVFGGGTELTVLGGGGSGGGGSGGGGSQLVQSGAEVRKPGESLKISCKGSGYSFTSYWIGWVRQMPGKGLEWMGFIYPGDSDTRYSPSFQGQVTISADKSISTAYLQRSSLKASDTAMYYCARLGGYSGYDSEVFYLDYWGQGTTVTVSS
binds: [1] | [2] | [3] | [4]

B5: Anti-CLL-1 Binder Clone 20 (VHH, not shown: small tags and cut ends)
VHH: QVQLVQSGGGLVQPGGSLRLSCAASDFSFSYYEMSWVRQAPGKGLEWVSTISGSGDSTYYADSVKGRFTISRDNTKNTLYLQMNTLRAEDTATYYCMTDGETWGTHRYTVYWGQGALVTVSS
binds: [1] | [2] | [3] | [4]

B6: Anti-CLL-1 Binder Clone 40 (scFv, not shown: small tags and cut ends)
scFv: QSVLTQPPSVSAAPGQKVTISCSGSSSNIGNNYVSWYQQLPGTAPKLLIYDNNKRPSGIPDRFSGSESGTSATLGITGLQTGDEADYYCGTWDSSLSAWVFGGGTQLIILGGGGSGGGGSGGGGSQVQLQQSGPGLVKPSQTLSLTCAISGDSVSSNSAAWNWIRQSPSRGLEWLGRTHYRSKWYNDYAVSVKSRITISADTSKNQFSLQLNSVTPEDTAVYYCARDRYTVRPDAFDIWGQGTTVTVSS
binds: [1] | [3] | [4]

B7: Anti-CLL-1 Binder Clone 38 (scFv, not shown: small tags and cut ends)
scFv: DIQMTQSPSTLSASVGDRVTITCRASQSISSWLAWYQQKPGKAPKLLIYTASSLQSGVPSRFSGSESGTDFTLTISSLQPEDFATYYCQQSYSTPLTFGGGTKVDIKGGGGSGGGGSGGGGSQVQLVQSGAEVKKPGASVKVSCKASGYTFTGYYMHWVRQAPGQGLEWMGWINPNSGGTNYAQKFQGRVTLTRDTSITTAYLELTSLTSDDTAVYYCARGDTGDFFDHWGQGTLVTVSS
binds: [1] | [2] | [3] | [4]

B8: Anti-CLL-1 Binder Clone 12 (scFv, not shown: small tags and cut ends)
scFv: DIQMTQSPSSLSASVGDRVTITCQASQDISNYLNWYQQKPGKAPKLLIYDASNLETGVPSRFSGSGSGTDFTLTISSPQPEDLATYYCQQANSFPFTFGQGTKVEIKGGGGSGGGGSGGGGSQVQLVQSGAEVKKPGSSVKVSCKASGYSFTRNDITWVRQANGRGLEWLGRLNPNNGDTVYAEVFQGRVAMTRDTSTDTAYMELASLKSDDTAVYFCARGFWSFDVWGQGTMVTVSS
binds: [1] | [3] | [4]

B9: Anti-CLL-1 Binder Clone 10 (scFv, not shown: small tags and cut ends)
scFv: DIQMTQSPSFLSASVGDRVTITCRASQGISSYLAWYQQKPGKAPKLLIYSASSLQSGVPSRFSGSGSGTDFTLTISSLQPEDFATYYCQQSYNSPTFGQGTRLEIKGGGGSGGGGSGGGGSQVQLVQSGAEVKKPGASVKVSCKASGYTFTGYYMHWVRQAPGQGLEWMGWMNPNSGNTGYAQKFQGRVTMTRNTSISTAYLELTSLTSDDTAVYYCARGDTGDFFDHWGQGTLVTVSS
binds: [1] | [3] | [4]
